These are yes or no findings as the source states them, for the method shown. Some binding calls cover weakened binding; strength is not graded here.
Target: caveolin 1 (human (endogenous in placenta)) (UniProt Q03135)
Experiment: native gel or EMSA; 2D BN/SDS-PAGE of human placenta lysate solubilised with 1.5% Triton X-100 (4-13% blue native PAGE, pH 7.0, 4°C, then SDS-PAGE); spots in the same vertical line identified by LC-MS/MS

The chains behind the UniProt entries cited, without tags or fusion partners.
UniProt Q03135: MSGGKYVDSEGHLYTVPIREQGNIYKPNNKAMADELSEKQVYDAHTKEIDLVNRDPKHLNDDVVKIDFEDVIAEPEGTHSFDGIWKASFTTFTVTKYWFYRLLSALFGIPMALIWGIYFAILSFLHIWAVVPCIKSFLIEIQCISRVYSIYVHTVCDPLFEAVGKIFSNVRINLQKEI
UniProt P07355: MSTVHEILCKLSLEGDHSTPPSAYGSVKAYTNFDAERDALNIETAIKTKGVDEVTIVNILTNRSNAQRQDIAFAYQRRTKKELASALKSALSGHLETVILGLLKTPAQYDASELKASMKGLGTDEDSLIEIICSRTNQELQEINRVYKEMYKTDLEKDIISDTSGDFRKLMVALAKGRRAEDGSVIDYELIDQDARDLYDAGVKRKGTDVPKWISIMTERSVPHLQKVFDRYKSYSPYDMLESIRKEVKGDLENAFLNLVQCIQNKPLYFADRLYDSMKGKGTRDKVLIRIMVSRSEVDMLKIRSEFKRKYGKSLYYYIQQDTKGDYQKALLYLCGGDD

- binding: binds
Substance: annexin A2 (from UniProt P07355 1-339)

Reference: publication PMC3639281
